Source: PubChem BioAssay AID493014 (National Center for Advancing Translational Sciences (NCATS), 2011)
Screen size: about 340,000 compounds; about 170 (0.05%) were called active. Inconclusive results, whose numbers are uncertain, are shown with a selection of clear calls. Calls follow the shape of the dose curve; as a rule, active = well fitted inhibition curve with a large enough effect in the signal ratio, with a control signal flat (not every such curve was filed as active); inconclusive = small, poorly fitted or top-dose-only effect, or effect the other way, or a change in a side signal; inactive = flat fitted curve, though single readings scatter; the % refers to the signal ratio. A potency beside an inconclusive call is a rough fit, not a confirmed value.

Experiment: qHTS Assay to Find Inhibitors of Chronic Active B-Cell Receptor Signaling;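 as to activity change, negative = inhibition: plate controls were basal doxycycline-induced cells for no effect and cells given 10 µM MG132 for full effect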
Conditions: ABC-DLBCL IkBa-CBG/CBR reporter, luminescence ratio (green luciferase fused to IkBa over red control in TMD8 lymphoma cells), 4 h; activity change, negative = inhibition: at 46.1 µM (top of the series) unless noted
In short: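 Compounds up to 46 uM were incubated four hours with TMD8 cells whose green CBG68 luciferase is fused to IkappaBalpha; red CBR luminescence normalised the signal, and concentration-effect curves were fitted to fusion, red and ratio data.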
Potency is read from the fitted curve at half-maximal effect.

| Compound | Potency | activity change, negative = inhibition |
| --- | --- | --- |
| CCOC(=O)c1sc(NC(=O)c2ccc(S(=O)(=O)N(CC)CC)cc2)nc1C | inconclusive: 2.31 µM [falling, full curve] |  |
| Cc1ccc2nc(-c3cccc(NC(=O)c4ccc5c(c4)OCCO5)c3)oc2c1 |  | inactive |
| O=S(=O)(c1ccc(OCC(O)CNC23CC4CC(CC(C4)C2)C3)c(Cl)c1)N1CCOCC1 (configuration not stated) |  | inactive |
| COc1ccc(NC(=O)c2sc(N3CCOCC3)nc2-c2ccccc2)c(OC)c1 | inconclusive: 16.4 µM [falling, partial curve] |  |
| CCN(Cc1cc2cc(C)ccc2[nH]c1=O)C(=O)c1cccc([N+](=O)[O-])c1 |  | inactive |
| COc1ccc(CCNC(=O)C2Cc3ccccc3C(=O)O2)cc1 (configuration not stated) |  | inconclusive: -10.8% |
| COc1ccc(C)cc1NS(=O)(=O)c1ccc2c(c1)NC(=O)C(C)S2 (configuration not stated) |  | inconclusive: 2.43% |
| COc1ccc([C@H]2CC(=O)C=C(c3ccc(-c4ccccc4)c(F)c3)C2)cc1OC |  | inconclusive: 3.81% |
| COc1cccc(N2CCN(C(=O)c3cc(-c4ccc(F)cc4)[nH]c3C)CC2)c1 | inconclusive: 2.82 µM [falling, full curve] |  |
| O=C(O)/C(=C\c1ccccc1OC(F)F)Sc1nnc(-c2ccc(F)cc2)o1 | inconclusive: 15.8 µM [falling, partial curve, poor fit] |  |
| CCOCCCNC(=O)c1cc2c(s1)-c1ccccc1SC2 |  | inconclusive: -4.66% |
| N/C(=N\OC(=O)Nc1ccc(Cl)cc1)c1ncc(C(F)(F)F)cc1Cl |  | inconclusive: -10.1% |
| Cc1ccc2nc(-c3cccc(N)c3)[nH]c2c1 | inconclusive: 14.6 µM [falling, partial curve] |  |
| COc1ccc(/C=C/C(=O)c2ccc3c4c(cccc24)CC3)cc1OC | inconclusive: 25.9 µM [falling, partial curve, poor fit] |  |
| N=c1c2c(-c3ccccc3)c(-c3ccccc3)n(Cc3ccccc3)c2ncn1CCCn1ccnc1 |  | inconclusive: -22.3% |
| COc1ccc(CCNC(=O)CCNC(=O)N2CC(=O)Nc3ccccc32)cc1OC |  | inconclusive: -2.42% |
| O=C(O)CC1(CC(=O)Nc2ccc3ccccc3n2)CCCCC1 |  | inconclusive: -11% |
| CC(C)c1ccc(/C=C2\NC(=O)NC2=O)cc1 |  | inconclusive: 0.516% |
| COc1ccc(OC)c(S(=O)(=O)NCC(c2ccco2)S(=O)(=O)c2ccccc2)c1 (configuration not stated) | inconclusive: 0.501 µM [falling, full curve, poor fit] |  |
| O=C(Nc1nc(-c2ccc3ccccc3c2)cs1)c1ccc(N2C(=O)CCC2=O)cc1 |  | inconclusive: 9.62% |
| CCOC(=O)CN1C(=O)C(CC)Oc2ccc(Cl)cc21 (configuration not stated) |  | inconclusive: 1.83% |
| CCOc1ccc(C(C(=O)NC(C)(C)C)N(CCOC)C(=O)CCC(=O)Nc2ccccn2)cc1 (configuration not stated) |  | inactive |
| CC1=C(C(=O)OCc2ccccc2)C(c2cccc([N+](=O)[O-])c2)NC(=O)N1 (configuration not stated) |  | inconclusive: -12.5% |
| Cc1cc(NC(=O)CSc2nc3ccccc3c(=O)n2CCCC(=O)NCc2ccco2)n[nH]1 |  | inconclusive: -18.1% |
| CCCCn1c(=N)n(CC(=O)c2ccc(Br)s2)c2ccccc21 | inconclusive: 31.6 µM [falling, single point] |  |
| Clc1ccc(-n2ncc3c(NCCCn4ccnc4)ncnc32)cc1 | inconclusive: 2.06 µM [rising, full curve, poor fit] |  |

Among those listed so far, eleven contain a carbonyl joined to an NH by a bond outside any ring:

| Compound | Potency | activity change, negative = inhibition |
| --- | --- | --- |
| CCOC(=O)c1sc(NC(=O)c2ccc(S(=O)(=O)N(CC)CC)cc2)nc1C | inconclusive: 2.31 µM [falling, full curve] |  |
| Cc1ccc2nc(-c3cccc(NC(=O)c4ccc5c(c4)OCCO5)c3)oc2c1 |  | inactive |
| COc1ccc(NC(=O)c2sc(N3CCOCC3)nc2-c2ccccc2)c(OC)c1 | inconclusive: 16.4 µM [falling, partial curve] |  |
| COc1ccc(CCNC(=O)C2Cc3ccccc3C(=O)O2)cc1 (configuration not stated) |  | inconclusive: -10.8% |
| CCOCCCNC(=O)c1cc2c(s1)-c1ccccc1SC2 |  | inconclusive: -4.66% |
| N/C(=N\OC(=O)Nc1ccc(Cl)cc1)c1ncc(C(F)(F)F)cc1Cl |  | inconclusive: -10.1% |
| COc1ccc(CCNC(=O)CCNC(=O)N2CC(=O)Nc3ccccc32)cc1OC |  | inconclusive: -2.42% |
| O=C(O)CC1(CC(=O)Nc2ccc3ccccc3n2)CCCCC1 |  | inconclusive: -11% |
| O=C(Nc1nc(-c2ccc3ccccc3c2)cs1)c1ccc(N2C(=O)CCC2=O)cc1 |  | inconclusive: 9.62% |
| CCOc1ccc(C(C(=O)NC(C)(C)C)N(CCOC)C(=O)CCC(=O)Nc2ccccn2)cc1 (configuration not stated) |  | inactive |
| Cc1cc(NC(=O)CSc2nc3ccccc3c(=O)n2CCCC(=O)NCc2ccco2)n[nH]1 |  | inconclusive: -18.1% |

A different layout for two compounds above:
Compound,Potency,"activity change, negative = inhibition"
Cc1ccc2nc(-c3cccc(NC(=O)c4ccc5c(c4)OCCO5)c3)oc2c1,,inactive
O=S(=O)(c1ccc(OCC(O)CNC23CC4CC(CC(C4)C2)C3)c(Cl)c1)N1CCOCC1 (configuration not stated),,inactive

Next part.

| Compound | Potency | activity change, negative = inhibition |
| --- | --- | --- |
| O=C(Nc1cccc(C(F)(F)F)c1)C1CCCO1 (configuration not stated) |  | inconclusive: 0.996% |
| C=C(C)COc1ccc(-c2[nH]ncc2Oc2ccc(OC)cc2)c(O)c1 |  | inconclusive: -5.25% |
| O=C(CCc1ccccc1)Nc1cc(C(F)(F)F)ccc1Cl |  | inconclusive: 17.9% |
| O=C(Nc1nnc(Cc2ccccc2F)s1)Nc1ccccc1F |  | inconclusive: 14% |
| COc1ccc(NC(=O)C(=O)NCCCO)cc1Cl |  | inconclusive: 3.98% |
| C=CCOc1ccc(C(=O)NC2CCCCC2)cc1 | inconclusive: 3.26 µM [falling, partial curve, poor fit] |  |
| C/C(=N\NS(=O)(=O)c1ccccc1)c1cccc(NC(=O)c2cccc(Cl)c2)c1 | inconclusive: 20.6 µM [falling, single point] |  |
| CC(C)Cn1c(SCC(=O)Nc2cccc(S(N)(=O)=O)c2)nc2ccccc2c1=O |  | inconclusive: -12.3% |
| CCCn1c(=S)[nH]c2ccc(C(F)(F)F)cc21 |  | inconclusive: -19.9% |
| Cc1nc2ccc(NC(=O)Cc3c(F)cccc3Cl)cc2s1 |  | inconclusive: 0.981% |
| Cc1ccc(NS(=O)(=O)c2ccc(Cl)c(NC(=S)NC(=O)C3CCCCC3)c2)cc1Cl |  | inconclusive: -0.818% |
| O=C(CCCN1C(=O)/C(=C/c2ccccc2OC(F)F)SC1=S)Nc1cccnc1 | inconclusive: 18.4 µM [cytotoxic, partial curve] |  |
| Cc1nnc2sc(SCC(=O)Nc3cccc(Cl)c3)nn2c1=O | inconclusive: 1 µM [rising, partial curve, poor fit] |  |
| O=C1CN(C(=O)CSc2nc3ccccc3c(=O)n2Cc2ccc(F)cc2)c2ccccc2N1 |  | inconclusive: 0.362% |
| O=C(Nc1cnn(Cc2ccc(F)cc2)c1)c1cc(-c2cccs2)on1 | inconclusive: 2.59 µM [rising, full curve, poor fit] |  |
| C/C(=N/NC(=O)c1cc(C(C)C)[nH]n1)c1cccs1 | inconclusive: 25.1 µM [falling, partial curve, poor fit] |  |
| CCCCCNc1nc2ccccc2nc1NS(=O)(=O)c1cccs1 | inconclusive: 0.461 µM [rising, full curve, poor fit] |  |
| O=C(NCCc1ccc(Cl)cc1)c1ccc2c(c1)OCO2 | inconclusive: 20 µM [falling, partial curve] |  |
| CC(=O)[C@@]1(O)CC[C@H]2[C@@H]3CCC4=CC(=O)CC[C@]4(C)[C@H]3[C@@H](O)C[C@@]21C |  | inconclusive: -18.6% |
| O=C(CCl)Nc1cn(-c2ccccc2)nc1-c1ccc(F)cc1 |  | inconclusive: 7.15% |
| CN(CC(=O)Nc1nc2ccccc2s1)S(=O)(=O)c1ccc(Cl)cc1 |  | inconclusive: 19.8% |
| O=C(Cc1ccc(F)cc1)Nc1cccc2cccnc12 |  | inconclusive: 5.37% |
| COC(=O)c1cccc(NC(=O)Nc2ccc(Cl)c(Cl)c2)c1 |  | inconclusive: 7.42% |
| Cc1sc(NC(=O)c2cc3ccccc3oc2=O)c(C(=O)OC(C)C)c1-c1ccccc1 | inconclusive: 0.058 µM [rising, full curve, poor fit] |  |
| COCCNS(=O)(=O)c1cccn1-c1ncc(C(F)(F)F)cc1Cl |  | inconclusive: 18.6% |
| C/C=C(/C)C(=O)OC(C)(C)[C@@H]1Cc2c(ccc3ccc(=O)oc23)O1 |  | inactive |

| Compound | Potency | activity change, negative = inhibition |
| --- | --- | --- |
| C=CCOc1ccc(Oc2cc(C)nc(SC)n2)nn1 | inconclusive: 0.103 µM [falling, full curve, poor fit] |  |
| COCC(=O)Nc1ccc2nc3n(c(=O)c2c1)CCCCC3 |  | inconclusive: 18% |
| CCCC(=O)Nn1cnc2c(c1=O)C1(CCCCC1)Cc1ccccc1-2 |  | inconclusive: 1.96% |
| O=C(NCCc1csc(-c2cccnc2)n1)c1ccc(Br)o1 |  | inconclusive: -15.4% |
| COCCCNCCCCOc1ccccc1-c1ccccc1 |  | inconclusive: -1.63% |
| NC(=O)c1c(C(F)(F)F)cc(-c2ccccc2)nc1NCCO |  | inactive |
| CCOC(=O)c1ccc2c(c1)nc(SCC(=O)c1ccco1)n2CC |  | inactive |
| COc1ccc(-c2cc(C(C)=O)c(C)n2CCC(=O)NCc2ccc(C)cc2)cc1 | inconclusive: 11.2 µM [falling, partial curve, poor fit] |  |
| CC(C)(C)NC(=S)Nc1ccc(Br)cc1 |  | inconclusive: -7.3% |
| CCC1=NN2C(=N)/C(=C\c3cccn3-c3ccc(C)cc3C)C(=O)N=C2S1 |  | inconclusive: 5.42% |
| CC(=O)Nc1cc(C(=O)OCC(=O)c2ccc(Cl)cc2Cl)ccc1C |  | inactive |
| O=S(=O)(CCN1CCN(c2ccccc2O)CC1)c1cc(Cl)ccc1Cl | inconclusive: 16.4 µM [falling, single point] |  |
| CCCNC(=O)/C=C/c1ccc(C(C)C)cc1 |  | inconclusive: -0.172% |
| Cc1c(CCC(=O)O)c(=O)oc2cc(OCc3ccccc3Br)ccc12 | inconclusive: 22.4 µM [falling, single point] |  |
| Cc1ccc(Cc2cnc(NC(=O)c3ccco3)s2)cc1 | inconclusive: 0.0291 µM [rising, full curve, poor fit] |  |
| N#CC1(NC(=O)COC(=O)c2ccccc2SCC(=O)N2CCCC2)CCCCC1 |  | inconclusive: 2.49% |
| COc1ccc(OC)c(-n2c(N)c(C(=O)NCC3CCCO3)c3nc4ccccc4nc32)c1 (configuration not stated) |  | inconclusive: -18.3% |
| O=C(Nc1cccnc1)c1cc(-c2ccc(Cl)cc2)on1 | inconclusive: 2.82 µM [falling, full curve] |  |
| Cn1cccc1C(=O)C(=O)Nc1ccc(F)c(F)c1 | inconclusive: 25.1 µM [falling, single point] |  |
| O=C(Cn1cccc1C(=O)c1ccccc1)NCc1ccccc1Cl |  | inconclusive: -12% |
| Cc1ccc(C2(C)NC(=O)N(CC(=O)NC(=O)NC3CCCC3)C2=O)cc1 (configuration not stated) |  | inconclusive: -3.06% |
| Cc1cccn2c(=O)cc(CSc3nnc(NC(=O)COc4ccccc4)s3)nc12 |  | inactive |
| FC(F)(F)COc1nc(OCC(F)(F)F)nc(N2CCN(c3ccccc3)CC2)n1 |  | inactive |
| COc1ccccc1N(CC(=O)NC1CCCC1)C(=O)CCC(=O)Nc1ccccn1 |  | inconclusive: -11.4% |
| COc1cccc(C(C#N)N2CCCCC2)c1O (configuration not stated) |  | inactive |
